According to the supplement of paper PMC8007513:
Some of the results follow. Repeats are few or missing, and single values can be far off.

tested on: Saccharomyces cerevisiae BY4743; test: growth (OD600) with compound + IPBC relative to untreated control; higher = less growth inhibition; conditions: compound concentration: 133 uM; IPBC concentration: 0.5 ug/ml; 20 h
Procedure: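 NMCCC compounds (133 uM) combined with IPBC (0.5 ug/ml) against Saccharomyces cerevisiae BY4743 in YPD, 96-well plates. Growth was read as OD600 at 20 h and expressed as % of the untreated control. Single pass.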

Row | SMILES | growth
1 | CCCN(C(=O)C(=O)c1c(C)n(C)c2ccccc12)c1ccc(F)cc1 + CCCCNC(=O)OCC#CI [3-iodo-2-propynyl butylcarbamate (IPBC)] | 88.9%
2 | Cc1cccc(NS(=O)(=O)c2cc(-c3onc(C)c3C)ccc2C)n1 + CCCCNC(=O)OCC#CI [3-iodo-2-propynyl butylcarbamate (IPBC)] | 95.8%
3 | NC(=O)Nc1cccc(C(=O)N2CCOc3ccccc32)c1 + CCCCNC(=O)OCC#CI [3-iodo-2-propynyl butylcarbamate (IPBC)] | 103%
4 | Cc1cc(C)c2c(n1)nn1c(NCC(C)C)cc(C)nc21 + CCCCNC(=O)OCC#CI [3-iodo-2-propynyl butylcarbamate (IPBC)] | 104%
5 | Cc1nc2cc(NC(C)C(=O)NCC(F)(F)F)ccc2o1 (centres undefined) + CCCCNC(=O)OCC#CI [3-iodo-2-propynyl butylcarbamate (IPBC)] | 98.2%
6 | COC(=O)C1=CC=C(CN(C)C(=O)\C2=N\N(C(=O)CC2)C3=CC(=CC=C3C)C)C=C1 + CCCCNC(=O)OCC#CI [3-iodo-2-propynyl butylcarbamate (IPBC)] | 91%
7 | CCCNC(=O)CN1CCN(C(=O)CCCc2nc3ccccc3s2)CC1 + CCCCNC(=O)OCC#CI [3-iodo-2-propynyl butylcarbamate (IPBC)] | 91%
8 | COC(=O)c1c(C)[nH]c(C(=O)CN2CCN(c3nccs3)CC2)c1C + CCCCNC(=O)OCC#CI [3-iodo-2-propynyl butylcarbamate (IPBC)] | 84.5%
9 | COc1ccc(-c2noc(N(C)CC(=O)Nc3ccc(Br)cc3C)n2)cc1 + CCCCNC(=O)OCC#CI [3-iodo-2-propynyl butylcarbamate (IPBC)] | 62.3%
10 | CC(C)c1ccc(C(=O)Cn2cnc(C#N)n2)c(C(C)C)c1 + CCCCNC(=O)OCC#CI [3-iodo-2-propynyl butylcarbamate (IPBC)] | 97.3%
11 | COC(CNC(=O)CN1\N=C(\CC2=CC=NC=C2)C3=CC=CC=C3C1=O)OC + CCCCNC(=O)OCC#CI [3-iodo-2-propynyl butylcarbamate (IPBC)] | 82.9%
12 | Cc1ccc(NC(=O)C(Sc2nnc(C)n2C)c2ccccc2)cc1 (centres undefined) + CCCCNC(=O)OCC#CI [3-iodo-2-propynyl butylcarbamate (IPBC)] | 108%
13 | CC(C)c1nc(SC(C(=O)Nc2ccc(F)cc2)C(C)C)n[nH]1 (centres undefined) + CCCCNC(=O)OCC#CI [3-iodo-2-propynyl butylcarbamate (IPBC)] | 104%
14 | CCCNC(=O)c1nn(CC)cc1NC=O + CCCCNC(=O)OCC#CI [3-iodo-2-propynyl butylcarbamate (IPBC)] | 88.4%
15 | CC(Sc1ccc2c(c1)OCCCO2)C(=O)Nc1sccc1C(N)=O (centres undefined) + CCCCNC(=O)OCC#CI [3-iodo-2-propynyl butylcarbamate (IPBC)] | 113%
16 | CCn1c(O)nnc1SCc1csc(C)n1 + CCCCNC(=O)OCC#CI [3-iodo-2-propynyl butylcarbamate (IPBC)] | 97.3%
17 | COc1cc(CC(=O)Nc2nc(CN3CC(C)OC(C)C3)cs2)cc(OC)c1OC (centres undefined) + CCCCNC(=O)OCC#CI [3-iodo-2-propynyl butylcarbamate (IPBC)] | 88%
18 | Cc1nc(Nc2ccc(F)cc2Cl)c2cc(C)sc2n1 + CCCCNC(=O)OCC#CI [3-iodo-2-propynyl butylcarbamate (IPBC)] | 86.9%
19 | COC(=O)C[C@H](NC(=O)N1CCSCC1c1ccc(OC)cc1)C(=O)OC (some centres undefined) + CCCCNC(=O)OCC#CI [3-iodo-2-propynyl butylcarbamate (IPBC)] | 97.9%
20 | O=C(CSc1ccc(-c2cccs2)nn1)NC1CCCCC1 + CCCCNC(=O)OCC#CI [3-iodo-2-propynyl butylcarbamate (IPBC)] | 95.2%

Quoted at random: two records from the list, in no set order.
Row | SMILES | growth
11 | COC(CNC(=O)CN1\N=C(\CC2=CC=NC=C2)C3=CC=CC=C3C1=O)OC + CCCCNC(=O)OCC#CI [3-iodo-2-propynyl butylcarbamate (IPBC)] | 82.9%
1 | CCCN(C(=O)C(=O)c1c(C)n(C)c2ccccc12)c1ccc(F)cc1 + CCCCNC(=O)OCC#CI [3-iodo-2-propynyl butylcarbamate (IPBC)] | 88.9%

The results go on:

Row | SMILES | growth
21 | COc1cccc(-c2nc(NCCO)c3ccccc3n2)c1 + CCCCNC(=O)OCC#CI [3-iodo-2-propynyl butylcarbamate (IPBC)] | 87.2%
22 | COc1cc(NC(=O)NCc2c(C)nn(C)c2C)cc(OC)c1OC + CCCCNC(=O)OCC#CI [3-iodo-2-propynyl butylcarbamate (IPBC)] | 97.7%
23 | Cc1ccc(NC(=O)C2(N(C)C(=O)c3ccccn3)CCCCC2)cc1Br + CCCCNC(=O)OCC#CI [3-iodo-2-propynyl butylcarbamate (IPBC)] | 103%
24 | COc1cc(OC)c(NC(=O)NC(C(=O)N2CCc3ccccc32)C(C)C)cc1Cl (centres undefined) + CCCCNC(=O)OCC#CI [3-iodo-2-propynyl butylcarbamate (IPBC)] | 93.6%
25 | O=C(CN(c1cc(C(F)(F)F)ccc1Cl)S(=O)(=O)c1ccccc1)N1CCOCC1 + CCCCNC(=O)OCC#CI [3-iodo-2-propynyl butylcarbamate (IPBC)] | 96.4%
26 | Cc1cc(-c2csc(N)n2)c(C)n1NC(=O)c1ccccc1 + CCCCNC(=O)OCC#CI [3-iodo-2-propynyl butylcarbamate (IPBC)] | 64.2%
27 | CCOC(=O)c1c(C)[nH]c(CN(Cc2ccc(C)cc2)S(=O)(=O)c2c(C)noc2C)c1C + CCCCNC(=O)OCC#CI [3-iodo-2-propynyl butylcarbamate (IPBC)] | 92.6%
28 | Cc1ccc(Cl)cc1N1C(=O)N(C)c2ccccc2S1(=O)=O + CCCCNC(=O)OCC#CI [3-iodo-2-propynyl butylcarbamate (IPBC)] | 94.2%
29 | CCN(CC)CCNC(=O)CN1\C=N/C2=C(C(=NO2)C)C1=O + CCCCNC(=O)OCC#CI [3-iodo-2-propynyl butylcarbamate (IPBC)] | 97.6%
30 | CCN(CC(=O)NC1CCS(=O)(=O)C1)C(=O)c1ccc(-n2cncn2)cc1 (centres undefined) + CCCCNC(=O)OCC#CI [3-iodo-2-propynyl butylcarbamate (IPBC)] | 99.8%
31 | COC1=CC=CC(=C1)C/2=N/[S](=O)(=O)N(C)/C(=C2)C(=O)NC3=C[N](N=C3)C(C)C + CCCCNC(=O)OCC#CI [3-iodo-2-propynyl butylcarbamate (IPBC)] | 107%
32 | COCCN(Cc1cccs1)S(=O)(=O)c1ccc(-c2cc(C(F)(F)F)on2)s1 + CCCCNC(=O)OCC#CI [3-iodo-2-propynyl butylcarbamate (IPBC)] | 91.9%
33 | CCOC(=O)\C1=C(/C)NC(=O)N(CC(=O)NC2=CC=C(F)C=C2F)C1C3=CC=CC=C3 (centres undefined) + CCCCNC(=O)OCC#CI [3-iodo-2-propynyl butylcarbamate (IPBC)] | 112%
34 | Cc1cccc(-n2ccnc2SCC(=O)Nc2ccccc2S(=O)(=O)C(F)F)c1 + CCCCNC(=O)OCC#CI [3-iodo-2-propynyl butylcarbamate (IPBC)] | 79.5%
35 | Cc1ccc(/C=C/c2nnc(-c3cccs3)o2)cc1 + CCCCNC(=O)OCC#CI [3-iodo-2-propynyl butylcarbamate (IPBC)] | 78.4%
36 | Cc1nc(C2(NC(=O)C(C)Oc3ccc(C#N)cc3)CCCCC2)no1 (centres undefined) + CCCCNC(=O)OCC#CI [3-iodo-2-propynyl butylcarbamate (IPBC)] | 102%
37 | CCC(=O)Nc1ccc(S(=O)(=O)N2CCN(C)c3ccccc32)cc1 + CCCCNC(=O)OCC#CI [3-iodo-2-propynyl butylcarbamate (IPBC)] | 84.6%
38 | CCOc1ccc(CNc2nc3nc(C)c(C)c(O)n3n2)cc1 + CCCCNC(=O)OCC#CI [3-iodo-2-propynyl butylcarbamate (IPBC)] | 106%
39 | Cc1[nH]c(C(=O)NCC(Nc2ccccc2)C(C)C)c(C)c1C(=O)OC(C)C (centres undefined) + CCCCNC(=O)OCC#CI [3-iodo-2-propynyl butylcarbamate (IPBC)] | 79%
